In article PMC13436964:
These are yes or no findings as the source states them, for the method shown. In cells and extracts the contact can be indirect. Some entries that bind do so weakly or less than the wild type. For some of these results: Tags and fused reporters may be left off the sequences shown. Blank lines part the entries; values can stand above or below the molecule they belong to.

The chains behind the UniProt entries cited, without tags or fusion partners.
UniProt Q3UHZ5: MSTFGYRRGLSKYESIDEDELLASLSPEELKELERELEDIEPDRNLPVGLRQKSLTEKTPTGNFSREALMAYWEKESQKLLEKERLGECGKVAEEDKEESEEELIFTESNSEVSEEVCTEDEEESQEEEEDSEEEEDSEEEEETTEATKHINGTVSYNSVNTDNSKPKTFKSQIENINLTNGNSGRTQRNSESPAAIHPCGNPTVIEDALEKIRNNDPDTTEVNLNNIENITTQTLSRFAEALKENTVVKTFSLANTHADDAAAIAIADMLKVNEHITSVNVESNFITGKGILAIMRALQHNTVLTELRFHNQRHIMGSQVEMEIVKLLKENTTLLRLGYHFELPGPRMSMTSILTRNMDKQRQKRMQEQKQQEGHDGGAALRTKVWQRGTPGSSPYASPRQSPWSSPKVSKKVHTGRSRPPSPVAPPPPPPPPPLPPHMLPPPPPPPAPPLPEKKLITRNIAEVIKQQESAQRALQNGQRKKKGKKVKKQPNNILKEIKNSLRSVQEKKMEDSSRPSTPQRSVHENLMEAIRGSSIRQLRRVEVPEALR

How the values were obtained:
SIRT1-GFP = biological target: T1, SIRT1-GFP (UniProt Q923E4); assay: co-IP; GFP-Trap agarose on lysates of HEK293T cells expressing LMOD1-BirA* or LMOD2-BirA* (tetracycline) and transfected with SIRT1-GFP or GFP; 1 hr at 4 °C; eluates blotted with anti-BirA and anti-GFP
T1 sequence: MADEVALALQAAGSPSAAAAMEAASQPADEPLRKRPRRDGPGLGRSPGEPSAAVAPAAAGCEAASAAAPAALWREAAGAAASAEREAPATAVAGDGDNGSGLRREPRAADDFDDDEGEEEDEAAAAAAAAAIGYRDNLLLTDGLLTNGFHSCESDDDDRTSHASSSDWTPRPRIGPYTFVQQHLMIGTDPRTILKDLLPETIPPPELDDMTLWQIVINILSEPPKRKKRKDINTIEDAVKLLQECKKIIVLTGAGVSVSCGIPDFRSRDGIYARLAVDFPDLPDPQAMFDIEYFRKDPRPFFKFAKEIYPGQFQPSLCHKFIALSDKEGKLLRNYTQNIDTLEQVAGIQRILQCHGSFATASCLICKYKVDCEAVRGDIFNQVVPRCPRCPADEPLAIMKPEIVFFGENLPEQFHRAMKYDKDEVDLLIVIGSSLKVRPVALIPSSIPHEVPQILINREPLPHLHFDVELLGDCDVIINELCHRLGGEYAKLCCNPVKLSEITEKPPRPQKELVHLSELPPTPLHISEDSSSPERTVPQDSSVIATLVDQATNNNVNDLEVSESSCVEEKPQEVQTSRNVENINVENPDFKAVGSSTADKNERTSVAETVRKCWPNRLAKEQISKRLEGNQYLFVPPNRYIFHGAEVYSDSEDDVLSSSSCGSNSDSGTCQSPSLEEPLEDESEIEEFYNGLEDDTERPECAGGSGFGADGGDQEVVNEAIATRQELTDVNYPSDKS

[1] = biological target: T2, sirtuin 1 (SIRT1), endogenous in mouse primary myoblasts (mouse (endogenous in primary myoblasts)) (UniProt Q923E4); assay: proximity ligation; Duolink PLA with anti-Sirt1 and anti-Lmod1 antibodies in fixed mouse primary myoblasts during proliferation
T2 sequence: T1 sequence

[2] = biological target: T2, sirtuin 1 (SIRT1), endogenous in mouse primary myoblasts (mouse (endogenous in primary myoblasts)); assay: proximity ligation; Duolink PLA with anti-Sirt1 and anti-Lmod1 antibodies in fixed mouse primary myoblasts after 1 day of differentiation

binding (SIRT1-GFP): binds
Molecule: LMOD2-BirA*-FLAG (from UniProt Q3UHZ5 1-550)

binding [1]: binds weakly
binding [2]: binds
B1: leiomodin 1 (LMOD1), endogenous in mouse primary myoblasts (protein, UniProt Q8BVA4 1-595)
chain: MSKVAKYRRQVSEDPDIDSLLSTLSPEEMEELEKELDVVDPDGSIPVGLRQRNQTDKQPSGSFNREAMLNFCEKESKKLIQREMSVDESKQVGRKTDAKNGEEKDSDASRKAPGPRQDSDLGKEPKKGVLKKSFSRDREEADGRGGEKPKEEKVIRGIDKGRVRAAVDRKESGKDGREERAAAARKEEEKTGSVKNAGLSRDKDKKKEEVKEPSKKEEVKLTAESRNTVGRREDGRLKESSKENKKPEDEGIGSGGRDWRKEDEKVKKEENQPDKEVREESKTKAPEKQAPSCPNKPSDGQARAEEEAAPSIFDEPLEKVKNNDPEMTEVNVNNSDCITNEILVRFTEALEFNTVVKVFALANTRADDHVAFAIAIMLKANKTITSLNLDSNHITGKGILAIFRALLQNNTLTELRFHNQRHICGVKTEMEIAKLLKENTTLLKLGYHFELAGPRMTVTNLLSRNMDKQRQKRLQEQKQAQEASGEKKDRLEVPKVGALAKGSPKPSPQPSPKPAPKNSPKKAGVPAAPPPPPPPLAPPLIMENLKNSLSPATQRKMGDKVLPAQEKNSRDQLLAAIRSSNLKQLKKVEVPKLLQ

binding (SIRT1-GFP): binds
B2: LMOD1-BirA*-FLAG (protein, UniProt Q8BVA4 1-595)
chain: B1 chain
